{"source": "PubChem BioAssay AID504791 | Drosophila RNAi Screening Center, 2011", "purpose": "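Genes of the fly required for silencing by miRNA, siRNA or endo-siRNA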 (primary screen)", "system": "Drosophila S2-derived reporter cells", "knock-down reagent": "long dsRNA against Drosophila genes, about 150-250 ng dsRNA per well (siRNA assay); about 80-120 ng (miRNA assay)", "duration": "about 5 days (siRNA assay); about 4 days (miRNA assay)", "challenge": "copper sulfate induction of reporters: 25 µM (siRNA assay); 200 mM stated (miRNA assay), 1-2 days before reading", "measurement": "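Dual luciferase assay: Renilla to firefly signal ratio in each well, scaled to the mean ratio of its plate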", "scale": "siRNA reporter hit score: higher = 3 marks a strong hit with raised ratio; -3 a strong hit with lowered ratio", "units": "stable assay Renilla, run 1 in luminescence; stable assay firefly, run 1 in luminescence", "hit rule": "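a well was a first-pass pick when its plate-scaled ratio rose above 1.5 (siRNA assay) or 1.6 (miRNA assay), or dropped below 0.6; a gene counted only if two separate dsRNAs agreed on retest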", "note": "In all, the deposit lists about 23,000 reagents; shown is an unselected part of those that have a named target and a result. In the full data, 199 (0.86%) got an active call. 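Plate-scaled ratios behind the calls are not deposited; printed light signals are raw; many rows marked increased or decreased are still called inactive.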 A number with no mark means an inactive call. Names joined by + are all predicted targets of the reagent. Reagent sequences are not shown."}
{"predicted target": "Inx7 + cm", "amplicon": "DRSC18753", "stable assay Renilla, run 1": 6774, "stable assay firefly, run 1": 3.29e5}
{"predicted target": "Ir75a", "amplicon": "DRSC10188", "stable assay Renilla, run 1": 7978, "stable assay firefly, run 1": 3.59e5}
{"predicted target": "Syx1A", "amplicon": "DRSC15359", "stable assay Renilla, run 1": 5639, "stable assay firefly, run 1": 2.87e5}
{"predicted target": "Syx1A", "amplicon": "DRSC21554", "stable assay Renilla, run 1": 9222, "stable assay firefly, run 1": 4.48e5}
{"predicted target": "CG13049", "amplicon": "DRSC09930", "stable assay Renilla, run 1": 6667, "stable assay firefly, run 1": 3.37e5}
{"predicted target": "dod", "amplicon": "DRSC20577", "stable assay Renilla, run 1": 4876, "stable assay firefly, run 1": 4.61e5}
{"predicted target": "CG32021 (retired record)", "amplicon": "DRSC17206", "stable assay Renilla, run 1": 5653, "stable assay firefly, run 1": 4.47e5}
{"predicted target": "CG32021 (retired record)", "amplicon": "DRSC23926", "miRNA reporter change": "reporter ratio lowered past the hit cutoff (active)"}
{"predicted target": "CG33346", "amplicon": "DRSC22898", "stable assay Renilla, run 1": 4487, "stable assay firefly, run 1": 3.96e5}
{"predicted target": "CG13566", "amplicon": "DRSC04203", "stable assay Renilla, run 1": 5068, "stable assay firefly, run 1": 3.15e5}
{"predicted target": "modSP", "amplicon": "DRSC16726", "stable assay Renilla, run 1": 7136, "stable assay firefly, run 1": 4.14e5}
{"predicted target": "modSP", "amplicon": "DRSC16857", "stable assay Renilla, run 1": 7647, "stable assay firefly, run 1": 3.68e5}
{"predicted target": "modSP", "amplicon": "DRSC21489", "stable assay Renilla, run 1": 9534, "stable assay firefly, run 1": 5.24e5}
{"predicted target": "pck", "amplicon": "DRSC18565", "stable assay Renilla, run 1": 8388, "stable assay firefly, run 1": 4.72e5}
{"predicted target": "Fpgs2", "amplicon": "DRSC00600", "stable siRNA reporter change": "reporter ratio lowered past the hit cutoff", "stable assay Renilla, run 1": 2792, "stable assay firefly, run 1": 4.49e5}
{"predicted target": "PCNA", "amplicon": "DRSC07653", "miRNA reporter change": "reporter ratio lowered past the hit cutoff (active)", "stable assay Renilla, run 1": 6996, "stable assay firefly, run 1": 3.92e5}
{"predicted target": "M6", "amplicon": "DRSC11869", "stable assay Renilla, run 1": 6428, "stable assay firefly, run 1": 3.89e5}
{"predicted target": "CG11454", "amplicon": "DRSC00310", "stable assay Renilla, run 1": 13780, "stable assay firefly, run 1": 4.65e5}
{"predicted target": "Marcal1", "amplicon": "DRSC02718", "stable assay Renilla, run 1": 7079, "stable assay firefly, run 1": 3.16e5}
{"predicted target": "path", "amplicon": "DRSC10361", "stable assay Renilla, run 1": 5155, "stable assay firefly, run 1": 2.73e5}
{"predicted target": "CG7720", "amplicon": "DRSC16306", "stable assay Renilla, run 1": 9291, "stable assay firefly, run 1": 5.63e5}
{"predicted target": "CG7720", "amplicon": "DRSC16307", "stable assay Renilla, run 1": 3943, "stable assay firefly, run 1": 4.46e5}
{"predicted target": "Tnks", "amplicon": "DRSC14154", "stable assay Renilla, run 1": 6915, "stable assay firefly, run 1": 4.04e5}
{"predicted target": "CG5149", "amplicon": "DRSC02819", "stable assay Renilla, run 1": 11058, "stable assay firefly, run 1": 7.97e5}
{"predicted target": "Ugt37B1", "amplicon": "DRSC03225", "stable assay Renilla, run 1": 7504, "stable assay firefly, run 1": 3.93e5}
{"predicted target": "Nup98-96", "amplicon": "DRSC14209", "stable assay Renilla, run 1": 7932, "stable assay firefly, run 1": 3.30e5}
{"predicted target": "Nup98-96", "amplicon": "DRSC14210", "stable assay Renilla, run 1": 7679, "stable assay firefly, run 1": 3.22e5}
{"predicted target": "mei-38", "amplicon": "DRSC18564", "stable assay Renilla, run 1": 6184, "stable assay firefly, run 1": 3.71e5}
{"predicted target": "Irp-1A", "amplicon": "DRSC16719", "stable assay Renilla, run 1": 3940, "stable assay firefly, run 1": 3.65e5}
{"predicted target": "Mitf", "amplicon": "DRSC17212", "stable assay Renilla, run 1": 6304, "stable assay firefly, run 1": 4.09e5}
{"predicted target": "Mitf", "amplicon": "DRSC21056", "stable assay Renilla, run 1": 5231, "stable assay firefly, run 1": 4.14e5}
{"predicted target": "CG2061", "amplicon": "DRSC19348", "stable assay Renilla, run 1": 7902, "stable assay firefly, run 1": 5.10e5}
{"predicted target": "IntS8", "amplicon": "DRSC07417", "siRNA reporter hit score": -3, "stable assay Renilla, run 1": 12695, "stable assay firefly, run 1": 5.05e5}
{"predicted target": "CG30414", "amplicon": "DRSC04372", "stable assay Renilla, run 1": 6690, "stable assay firefly, run 1": 4.18e5}
{"predicted target": "Est-6", "amplicon": "DRSC11162", "stable assay Renilla, run 1": 5602, "stable assay firefly, run 1": 3.06e5}

Reformatted: 4 of the entries above.
CG2061 [DRSC19348]
- stable assay Renilla, run 1: 7902
- stable assay firefly, run 1: 5.10e5

IntS8 [DRSC07417]
- siRNA reporter hit score: -3
- stable assay Renilla, run 1: 12695
- stable assay firefly, run 1: 5.05e5

CG30414 [DRSC04372]
- stable assay Renilla, run 1: 6690
- stable assay firefly, run 1: 4.18e5

Est-6 [DRSC11162]
- stable assay Renilla, run 1: 5602
- stable assay firefly, run 1: 3.06e5
